Assay results reported in PubChem BioAssay AID743266 (National Center for Advancing Translational Sciences (NCATS), 2014).
The campaign covered roughly 410,000 compounds. About 310 (0.076%) were called active. The inconclusive results got no clear call from the source; some entries with a clear call stand among them for comparison. Calls come from the whole dose curve; as a rule, active = well fitted activation curve with a large enough effect; inconclusive = small, poorly fitted or top-dose-only effect, or another doubt; inactive = no such curve, though single readings can be large or run the other way. Where the call is inconclusive, the potency comes from a doubtful curve fit.

Amino acid sequences for entries named in this document (tags omitted). A change or cut given only in a name is not applied to a line headed by its entry.
UniProt Q03431: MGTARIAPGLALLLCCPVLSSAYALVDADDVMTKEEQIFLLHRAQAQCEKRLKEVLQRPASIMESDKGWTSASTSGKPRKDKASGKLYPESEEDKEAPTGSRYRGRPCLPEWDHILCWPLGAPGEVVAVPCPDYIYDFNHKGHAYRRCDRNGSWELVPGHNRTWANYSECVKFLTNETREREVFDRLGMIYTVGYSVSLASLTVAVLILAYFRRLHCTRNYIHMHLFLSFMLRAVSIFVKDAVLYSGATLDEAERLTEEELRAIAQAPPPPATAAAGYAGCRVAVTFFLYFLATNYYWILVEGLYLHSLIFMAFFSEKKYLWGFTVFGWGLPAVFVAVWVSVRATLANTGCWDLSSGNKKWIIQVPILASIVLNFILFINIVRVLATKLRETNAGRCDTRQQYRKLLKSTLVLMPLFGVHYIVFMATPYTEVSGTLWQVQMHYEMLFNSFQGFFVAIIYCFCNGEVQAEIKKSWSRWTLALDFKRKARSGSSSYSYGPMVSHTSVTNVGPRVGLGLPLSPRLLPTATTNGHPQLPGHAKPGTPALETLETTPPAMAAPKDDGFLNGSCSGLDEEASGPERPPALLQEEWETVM

Target: Parathyroid hormone/parathyroid hormone-related peptide receptor (Homo sapiens) (UniProt Q03431)
Assay: qHTS for PTHR1 Agonists: Primary Screen; note: nearly all actives have a fitted effect of over 55% in size
Conditions: HEK293 GP2 PTHR1 cells, GloSensor cAMP luminescence, 1 h; activation: at 115 µM (top of the series) unless noted; series mostly up to 115 µM
Method in brief: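 HEK-293-derived GP2 cells expressing PTHR1 and a GloSensor cAMP reporter, 3,000/well, plated overnight, given luciferin plus IBMX (each 0.5 mM as added) for 1 h at 37 °C, then compound for 1 h at 37 °C. Luminescence was read after 15 min at room temperature.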
Potency is the fitted concentration of half-maximal effect.

outcome, inactive:
CCN(CC)S(=O)(=O)c1ccc2c(c1)nc(CN(C)C(=O)Nc1ccc(Cl)cc1)n2C
CCC(=O)[C@@]1(C)[C@H](C)C[C@H]2[C@@H]3CCC4=CC(=O)C=C[C@]4(C)[C@H]3[C@@H](O)C[C@@]21C
COc1ccc(C(=O)c2ccc(OC)cc2O)c(O)c1
O=C(CCl)Nc1cccc(S(=O)(=O)NC2=NCCCCC2)c1
c1ccc2c(-c3cncc4ccccc34)cncc2c1
COc1ccccc1NC(=O)Cc1csc(NC(=S)Nc2ccc(C)cc2)n1 inactive [at 57.5 µM]
CC1(C(=O)NS(=O)(=O)C2CC2)CCCN(C(=O)c2ccc(C(F)(F)F)cc2)C1 (stereo not drawn)
CCN(CC)CCNc1nc(SC)nc2sc3c(c12)CCN(C)C3
Cc1cc([N+](=O)[O-])cc2ncccc12
COc1ccc(-c2nc(CCl)cs2)cc1OC

Looked up one by one from the list above (five):
outcome, inactive:
COc1ccc(C(=O)c2ccc(OC)cc2O)c(O)c1
O=C(CCl)Nc1cccc(S(=O)(=O)NC2=NCCCCC2)c1
Cc1cc([N+](=O)[O-])cc2ncccc12
CCN(CC)CCNc1nc(SC)nc2sc3c(c12)CCN(C)C3
CCN(CC)S(=O)(=O)c1ccc2c(c1)nc(CN(C)C(=O)Nc1ccc(Cl)cc1)n2C

Next part:

activation, inconclusive:
O=c1cnc2cc([N+](=O)[O-])ccc2[nH]1 41.1% [activator]
O=C(O)Cn1cc(C(=O)C2CC2)c2ccccc21 138% [activator] [at 57.5 µM]
CCn1c(SCC(=O)Nc2nccs2)nnc1-c1ccncc1 70.3% [activator] [at 57.5 µM]
O=c1c2c(nc3nc(Cc4ccccc4)[nH]n13)CCC2 33.2% [activator]
CCOC(=O)c1cccc(NC(=O)CSc2nc3cccnc3n2C)c1 -72.5% [activator] [at 57.5 µM]
CC1CCCCN1Cc1nc2ccccc2c(=O)[nH]1 (stereo not drawn) 202% [activator] [at 57.5 µM]
Cc1ccc(F)c(S(=O)(=O)NC(=O)C2(C)CCN2C(=O)Cc2ccc(C(C)(C)C)cc2)c1 (stereo not drawn) 15.3% [activator]
Cc1nn(-c2ccc(F)cc2)c(Cl)c1C(=O)NCC1CCCO1 (stereo not drawn) 38.6% [activator]
O=C(CSc1nnnn1-c1ccc(O)cc1)Nc1cccc(S(=O)(=O)N2CCCC2)c1 -5.75% [activator]
Nc1[nH]n(-c2ccccc2)c(=O)c1N=Nc1ccc2ncsc2c1 34% [activator]
Cc1ccccc1C(=O)N/N=C/c1cccc2ccccc12 42.5% [activator]
Cc1ccccc1NC(=O)CSc1nc2c(oc3ccccc32)c(=O)n1-c1ccccc1F 15.7% [activator]
C/C(=N\NC(=S)NC1CCCCC1)c1ccc(O)cc1 -30.4% [activator]
O=C(CN1C(=O)COc2ccc(Cl)cc21)NCC1CCCO1 (stereo not drawn) 48% [activator]
COc1ccccc1NC(=O)Nc1nc(CC(=O)N2CCN(c3ccccc3)CC2)cs1 -45.6% [activator]
COc1ccc(N2CCN(S(=O)(=O)c3cnc[nH]3)CC2)cc1 -3.21% [activator]
c1ccc(-c2nnc(N3CCCC3)nc2-c2ccccc2)cc1 -10.4% [activator]
COc1ccc(C2=CC3=C(Br)C(=O)C(C)(OC(=O)c4ccc(Cl)nc4)C(=O)C3=CO2)cc1 (stereo not drawn) 43.9% [activator]
O=Cc1c(-c2ccc(Cl)cc2)oc2ccc(O)cc12 -35.2% [activator]
COc1cc(C(=O)NCc2ccco2)c(Br)c(OC)c1OC -13.4% [activator] [at 57.5 µM]

activation, inactive:
O=C(c1noc2c1CCCCC2)N1CCN(c2cccc(C(F)(F)F)c2)CC1 -67.1%
CC(=O)c1c(C)oc2c(Br)cc(NS(=O)(=O)c3ccc(Br)cc3)cc12 -22.9%
Cc1ccc(-c2csc(C3C(N)=NC(S)=C(C#N)C34CCCCC4)n2)cc1 (stereo not drawn) -10.7%
CC(C)(C)c1csc(NC(=O)Cn2cnc3ccccc3c2=O)n1 -18.3%
Cc1cc(NC(=O)CCCN2C(=O)c3cccnc3C2=O)no1 -0.51% [at 57.5 µM]
Cc1ccc(S(=O)(=O)Nc2cccc3ncccc23)s1 -11.3% [at 57.5 µM]
CSC1=C(C#N)C(c2ccccc2C)C(C#N)=C(N)N1 (stereo not drawn) -28.2%
Cc1ccc(S(=O)(=O)n2nc(-c3ccco3)nc2NCc2ccccc2Cl)cc1 -11.2%
CCOC(=O)c1nnc(-c2ccc(C)cc2)nc1N1CCSCC1 -32.6%
CCc1nc2c(OCc3ccc(OC(F)F)cc3)cccn2c1N(C)C(=O)c1ccco1 -61.6%
Cc1ccc(-c2nc(C(Cl)Cl)c3ccccc3n2)cc1 -15.9%
CN(C)c1ccc(/C=C/c2cccc[n+]2[O-])cc1 -18.3%
O=C(CN1CCN(c2ccc(O)cc2)CC1)N1CCc2ccccc21 -6.87%
S=c1[nH]nc(-c2cccnc2)n1/N=C/c1ccccc1 -24%
CC1CCN(C2=NC(=O)/C(=C/c3ccccc3F)S2)CC1 -34.9%
CSc1nsc(NN)n1 -36.7%
CCOC(=O)C1CCN(C(=O)Cn2cc(C(=O)C3CC3)c3ccccc32)CC1 -7.45% [at 57.5 µM]
CCOc1cc(/C=C\c2nc(O)c([N+](=O)[O-])c(=O)[nH]2)ccc1OC(C)C -4.7%
COC(=O)c1ccc(NC(=O)C(=O)NCC(c2cccnc2)N2CCc3ccccc32)cc1 (stereo not drawn) -32.5%
COc1ccc(C(C[N+](=O)[O-])c2c(C)cc3ccccn23)cc1 (stereo not drawn) -46.6%

Nothing new here: an excerpt of the list.
activation, inactive:
CCc1nc2c(OCc3ccc(OC(F)F)cc3)cccn2c1N(C)C(=O)c1ccco1 -61.6%
Cc1ccc(-c2nc(C(Cl)Cl)c3ccccc3n2)cc1 -15.9%

Next part:

Potency, inconclusive:
COc1cccc(C(=O)N2CCN(CCc3ccncc3)CC2)c1 5.01 µM [activator, full curve, poor fit]
CCCCCCOC(=O)NCC(O)c1ccccc1 (stereo not drawn) 2.17 µM [activator, full curve, poor fit]
COc1ccccc1CC(=O)N1CCN(c2ccccc2)CC1 17.8 µM [activator, partial curve]
O=C(O)C1=C[C@H](c2ccc3c(c2)OCO3)C[C@H](OCc2ccc(CO)cc2)O1 126 µM [activator, single point]
O=C(CN1CCN(c2ccccc2)CC1)Nc1c(C(=O)C2CC2)oc2ccccc12 5.62 µM [activator, single point]
COC(=O)CSc1ccc(S(=O)(=O)N2CCCCCC2)cc1[N+](=O)[O-] 126 µM [activator, single point]
Oc1ccc2c(c1)C1CCCC1(N1CCOCC1)O2 (stereo not drawn) 158 µM [activator, single point]
CC(C)C(=O)N(c1ccc(F)cc1)C1C=CS(=O)(=O)C1 (stereo not drawn) 89.1 µM [activator, single point]
Cn1c(=O)n(C)c2cc(N3CCOCC3)c(NC(=O)c3c(F)cccc3F)cc21 79.4 µM [activator, partial curve, poor fit]
O=C(NCCCn1ccnc1)c1ccco1 39.8 µM [activator, single point]
Cc1ccc(C(=O)Nc2nc(-c3ccccn3)cs2)o1 141 µM [activator, single point]
Clc1ccccc1Cn1nnc2c(Nc3ccccc3)ncnc21 56.2 µM [activator, single point]
Cc1ccc(NC(=O)CSCC(=O)Nc2cc(S(=O)(=O)N3CCOCC3)ccc2OC(C)C)cc1 56.2 µM [activator, single point]
O=C(NC(=S)Nc1ccc(Cl)cn1)C(c1ccccc1)c1ccccc1 39.8 µM [activator, single point]
CCN(CC)CCCNC(=O)Cn1c(-c2cccs2)cc2cc(Cl)ccc21 141 µM [activator, single point]
COc1ccc(-n2ccn(Cc3ccc(C)cc3)c(=O)c2=O)cc1OC 50.1 µM [activator, partial curve, poor fit]
CCOc1ccc(S(=O)(=O)N2CCN(c3ccccc3)CC2)cc1C(N)=O 100 µM [activator, partial curve, poor fit]
COC(=O)C1CCCN1S(=O)(=O)c1ccc2ccccc2c1 (stereo not drawn) 0.891 µM [activator, full curve, poor fit]
O=C(CNC(=O)c1sc2ccccc2c1Cl)NCc1ccc(F)cc1 141 µM [activator, single point]
O=c1c2cnn(-c3ccccc3Cl)c2ncn1Cc1cccnc1 0.355 µM [activator, full curve, poor fit]
C/C(=N/NC(=O)CSc1nc2ccccc2n1C)c1ccncc1 126 µM [activator, single point]
Cc1nc2ccc(NC(=O)Cc3ccc(Br)cc3)cc2s1 44.7 µM [activator, partial curve]
Cc1ccc(NC(=O)C2CCCO2)cc1[N+](=O)[O-] (stereo not drawn) 25.1 µM [activator, single point]
CC(C)C1Oc2cc3oc(=O)ccc3cc2C1=O (stereo not drawn) 4.47 µM [activator, partial curve, poor fit]
Cc1csc(N(C(=O)c2cccc(S(=O)(=O)N(C)C)c2)c2ccccc2)n1 5.01 µM [activator, single point]
C=CCNc1oc(-c2ccc(OCC)cc2)nc1C#N 3.16 µM [activator, partial curve]
CN(C)CCn1c(=O)n(C2CCCCC2)c(=O)c2c3c(sc21)CCCCC3 28.2 µM [activator, partial curve, poor fit]

Potency, inactive:
COc1ccccc1N1CCN(CCCNC(=O)Cn2ncc3c([nH]c4ccccc43)c2=O)CC1
